Results are given in words; binding and its absence hold for the method and conditions named. In cells and extracts the contact can be indirect. Some entries that bind do so weakly or less than the wild type.

Sequences of proteins named here, by UniProt entry; tags and fusion partners are left off.
UniProt Q5SF07: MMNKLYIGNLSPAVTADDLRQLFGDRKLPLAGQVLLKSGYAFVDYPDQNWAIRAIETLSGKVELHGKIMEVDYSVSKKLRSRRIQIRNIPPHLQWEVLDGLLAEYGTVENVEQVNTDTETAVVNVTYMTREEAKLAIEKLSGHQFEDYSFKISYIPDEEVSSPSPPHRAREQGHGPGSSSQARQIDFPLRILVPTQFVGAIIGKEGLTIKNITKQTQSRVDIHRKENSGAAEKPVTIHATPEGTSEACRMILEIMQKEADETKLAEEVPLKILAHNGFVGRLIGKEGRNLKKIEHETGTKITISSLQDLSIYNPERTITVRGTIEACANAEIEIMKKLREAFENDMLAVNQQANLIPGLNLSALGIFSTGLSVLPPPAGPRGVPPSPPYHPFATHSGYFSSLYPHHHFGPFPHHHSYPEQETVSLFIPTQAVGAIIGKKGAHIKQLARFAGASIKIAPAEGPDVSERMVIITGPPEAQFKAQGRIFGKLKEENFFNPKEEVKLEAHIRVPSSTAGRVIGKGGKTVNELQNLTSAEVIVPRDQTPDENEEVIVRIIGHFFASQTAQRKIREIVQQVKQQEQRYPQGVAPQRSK
UniProt P70372: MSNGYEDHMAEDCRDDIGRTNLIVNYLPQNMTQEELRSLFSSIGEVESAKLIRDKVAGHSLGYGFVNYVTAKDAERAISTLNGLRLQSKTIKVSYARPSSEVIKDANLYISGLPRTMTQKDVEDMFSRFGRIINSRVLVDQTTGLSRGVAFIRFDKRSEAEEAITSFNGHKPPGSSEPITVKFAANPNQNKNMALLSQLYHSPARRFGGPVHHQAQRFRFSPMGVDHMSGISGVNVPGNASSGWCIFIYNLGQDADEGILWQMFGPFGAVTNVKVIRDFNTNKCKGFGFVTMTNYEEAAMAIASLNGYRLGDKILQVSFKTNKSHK

This test concerns the target IGF-2 mRNA-binding protein 2 (mouse (endogenous in MEFs)) (UniProt Q5SF07). Put plainly: co-IP; MEF lysates, with or without RNase A treatment, immunoprecipitated with anti-IMP2 Abs; HuR detected in the precipitate.

As for “Hu-antigen R (from UniProt P70372 1-326)”, the binding entry was “binds”.
